# Laboratory results published in PubChem BioAssay AID2685 (National Center for Advancing Translational Sciences (NCATS), 2010).
# The list shows a part of the results. Shown are side measurements of this screen, not its main read-out; they come without a call. The list favours compounds with an active or inconclusive main result. The note in brackets gives the kind of curve behind each potency; many fits are weak.
# Assay: qHTS Assay for Lipid Storage Modulators in Drosophila S3 Cells;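 for cell number change: cells counted by Cell Tracker Red CMTPX staining in the red channel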
# Details: BODIPY lipid droplet fluorescence, 18-24 h; for cell number change: measured here: cell count max response, cells fed with added oleic acid
# Outline: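 Laser-scanning cytometry quantifies lipid droplet accumulation (500–530 nm total intensity; droplet/cell object ratio) in oleic acid-fed (400 uM added) Drosophila S3 cells treated with a concentration series. 20 uM Triacsin C defined 100% inhibition.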
# [1] = measured here: cell number channel AC50, cells fed with added oleic acid
# [2] = measured here: lipid fluorescence (Fed channel) AC50, cells fed with added oleic acid
Compound,cell number change,AC50 [1],AC50 [2]
CCn1nc(C(=O)Nc2nc3ccc(C)cc3s2)c2ccccc2c1=O,34.7%,"0.517 µM [rising, full curve]",–
CC(C)c1ccc(NC(=O)CSc2n[nH]c(=O)n2-c2cccnc2)cc1,-3.78%,–,"29.1 µM [rising, single point]"
COc1ccc(C(=O)Nc2nnc(S(=O)(=O)Cc3ccccc3)s2)cc1,20.6%,–,"29.1 µM [falling, single point]"
S=c1[nH]c2ccccc2o1,–,–,"0.103 µM [falling, full curve, poor fit]"
CCOc1ccccc1NC(=O)C1=C(C)NC(=O)NC1c1cccc(OC)c1OC (stereo unspecified),60.8%,–,"4.11 µM [rising, full curve]"
COCCNS(=O)(=O)c1ccc(-c2ccc(C)cc2)cc1,4.77%,–,–
CCCOc1ccc(CSc2nnc(CCC)n2N)cc1,0.0568%,–,"4.11 µM [rising, full curve]"
CN1C(=O)C(C)(C)c2cc(S(=O)(=O)NCC3CCC(C(=O)NC4CCCCC4)CC3)ccc21 (stereo unspecified),13.4%,–,"29.1 µM [falling, single point]"
Cn1c(CC(=O)Nc2ccccc2F)nnc1SCC(=O)N1CCOCC1,22.1%,–,–
CCOc1ccc(CCNC(=O)CCNC(=O)c2ccccc2Cl)cc1OCC,6.74%,–,"7.31 µM [falling, partial curve]"
CS(=O)(=O)c1ccc(C(=O)OCc2nnc(-c3ccccc3)o2)cc1[N+](=O)[O-],–,"0.00411 µM [rising, partial curve, poor fit]","29.1 µM [falling, single point]"
COc1ccccc1NC(=O)c1ccc(NC(=O)CSc2nnnn2C)cc1,–,"1.84 µM [rising, partial curve]","1.84 µM [rising, partial curve]"
O=C1CC(C(=O)Nc2ccccc2C(=O)O)C(c2ccccc2)O1 (stereo unspecified),80.8%,"25.9 µM [rising, partial curve]",–
Cc1cc(NC(=O)c2ccc([N+](=O)[O-])cc2Cl)ccc1NC(=O)c1ccco1,26.3%,"4.11 µM [rising, single point]","4.61 µM [rising, full curve, poor fit]"
COc1ccc(Cl)cc1NC(=O)C(C)N1CCN(c2ccccn2)CC1 (stereo unspecified),14.3%,–,"20.6 µM [rising, single point]"
CCOC(=O)c1nnn(-c2nonc2N)c1CN(CC)CC,10.6%,–,"29.1 µM [falling, partial curve, poor fit]"
Cc1cccc(C)c1N=C1C(=O)Nc2ccccc21,-47%,"16.4 µM [falling, single point]","18.4 µM [falling, single point]"
COc1ccc(OCCN2CCN(C(=O)c3ccc(OC(F)F)c(OC)c3)CC2)cc1,21.7%,–,–
Cc1cc(/C=C2/NC(=O)N(Cc3ccccc3F)C2=O)c(C)n1C(C)C,–,–,"2.59 µM [rising, full curve]"
CC1CCN(C(=O)COC(=O)CSc2ccc(C(N)=O)cc2[N+](=O)[O-])CC1,–,–,"0.13 µM [falling, full curve, poor fit]"

Compound,cell number change,AC50 [1],AC50 [2]
CC(=O)N1N=C(c2ccc(C(C)(C)C)cc2)OC1(C)C,-35.7%,"20.6 µM [falling, single point]","16.4 µM [falling, partial curve]"
COCCn1c(C)cc(C2=NNC(=Nc3ccccc3F)SC2)c1C,-2.02%,–,–
Cn1c(-c2ccc(F)cc2)cnc1SCC(=O)NNC(=O)Cc1ccccc1,-12.4%,–,"0.00411 µM [falling, full curve, poor fit]"
CCN(CC)S(=O)(=O)c1ccc2c(c1)c(=O)c(C(=O)N1CCOCC1)cn2C,-6.41%,–,"4.11 µM [falling, full curve, poor fit]"
CS/C(=N\S(=O)(=O)c1ccc(Cl)cc1)c1ccccc1,-102%,"18.4 µM [falling, partial curve, poor fit]","23.1 µM [falling, partial curve]"
O=S1OC(c2ccccc2)c2cc(Cl)ccc21 (stereo unspecified),-20.5%,–,"3.66 µM [rising, single point]"
COC(=O)C(Cc1ccc(O)cc1)NC(=O)c1ccc2c(c1)OCCO2 (stereo unspecified),10.8%,–,"6.51 µM [rising, partial curve, poor fit]"
Cc1cccc(NC(=O)CSc2nc(N)c(NC(=O)c3ccccc3F)c(=O)[nH]2)c1,-11.9%,"6.51 µM [falling, single point]","29.1 µM [falling, single point]"
O=C(Cc1cccc(C(F)(F)F)c1)NCC(=O)Nc1cc(Cl)ccc1Cl,25.2%,–,"0.58 µM [falling, single point]"
O=C(CCN1C(=O)/C(=C/c2ccccc2F)SC1=S)NCCCN1CCOCC1,8.11%,–,"0.103 µM [rising, full curve, poor fit]"
CCNc1ccccc(C(=O)/C=C/c2ccc3c(c2)OCO3)c1=O,–,"1.16 µM [rising, partial curve]","0.58 µM [rising, single point]"
Cc1ccc(/C=N/NC(=O)c2ccncc2)cc1,-4.21%,–,–
O=C(Cc1ccc(Cl)cc1Cl)OCC(=O)N1CCN(C(=O)c2ccco2)CC1,15.4%,"0.00517 µM [falling, full curve, poor fit]","0.326 µM [falling, full curve]"
Nc1nc(SC2c3cccc4cccc(c34)C2NS(=O)(=O)c2ccccc2)n[nH]1 (stereo unspecified),32.8%,"3.66 µM [rising, partial curve]","2.31 µM [falling, single point]"
O=C(O)CNC(=O)c1ccc(OC(F)F)cc1,-19.1%,–,"8.2 µM [falling, partial curve, poor fit]"
Cc1cccc(OCC(=O)Nc2ccc3oc(=O)ccc3c2)c1C,2.25%,–,"6.51 µM [falling, single point]"
C/C(=N/NC(=O)c1sc(NS(=O)(=O)c2ccc(C)cc2)nc1C)c1sc(N)nc1C,49.5%,"29.1 µM [rising, single point]","16.4 µM [rising, single point]"
Cc1c(N=Cc2ccc(-c3ccc(Cl)cc3)o2)c(=O)n(-c2ccccc2)n1C,-13.2%,–,–
Cc1ccc(NC(=O)c2nc(S(=O)(=O)Cc3ccccc3)ncc2Cl)cc1,–,"0.13 µM [falling, full curve, poor fit]","6.51 µM [falling, partial curve]"
COCCCN(C(=O)c1cc2c(s1)CCCCC2)c1c(N)n(Cc2ccccc2)c(=O)[nH]c1=O,-39.7%,"29.1 µM [falling, single point]",–

# Complete entries from above:
# Cc1ccc(NC(=O)c2nc(S(=O)(=O)Cc3ccccc3)ncc2Cl)cc1 in the list: AC50 [1]: 0.13 µM [falling, full curve, poor fit]; AC50 [2]: 6.51 µM [falling, partial curve]
# CN1C(=O)C(C)(C)c2cc(S(=O)(=O)NCC3CCC(C(=O)NC4CCCCC4)CC3)ccc21 (stereo unspecified) in the list: cell number change: 13.4%; AC50 [2]: 29.1 µM [falling, single point]
# S=c1[nH]c2ccccc2o1 in the list: AC50 [2]: 0.103 µM [falling, full curve, poor fit]
# COc1ccccc1NC(=O)c1ccc(NC(=O)CSc2nnnn2C)cc1 in the list: AC50 [1]: 1.84 µM [rising, partial curve]; AC50 [2]: 1.84 µM [rising, partial curve]

# (listing goes on)

Compound,cell number change,AC50 [1],AC50 [2]
Cn1c(=O)c2c(nc(SCC(=O)N3CCc4ccccc43)n2Cc2ccccc2)n(C)c1=O,11.1%,–,"2.06 µM [rising, partial curve]"
FC(F)(F)c1ccc2c(c1)C1C=CCC1C(c1ccncc1)N2 (stereo unspecified),-62.1%,"6.51 µM [falling, partial curve, poor fit]","1.03 µM [falling, full curve]"
CCN(CC)CCOCCOc1ccc(Cl)c2ccccc12,-7.73%,–,"2.91 µM [rising, single point]"
CCCN1C(=O)/C(=c2\sc3nc(=O)c(Cc4ccc(C)cc4)nn3c2=O)c2ccccc21,–,"0.731 µM [falling, single point]","1.03 µM [falling, single point]"
C=CCN1CCN(C(CC(C)C)c2nnnn2CCOC)CC1 (stereo unspecified),-0.641%,–,"16.4 µM [rising, single point]"
COc1ccccc1CNC(=O)COC(=O)CSc1ccc(C)c(C)c1,50%,"0.58 µM [rising, full curve]",–
CC(=O)Nc1ccc(SCc2csc(C)n2)cc1,4.7%,–,–
Cc1ccc2c(c1)c1ncnc(N3CCc4ccccc4C3)c1n2C,-15.7%,–,–
OCC[C@@H]1C[C@@H](O)[C@H](O)[C@@]2(OCc3ccccc32)O1,16.2%,–,"29.1 µM [rising, single point]"
CCCNC(=O)c1ccc(N2CCC3(CC2)CC(c2cccc(Br)c2)=NO3)c([N+](=O)[O-])c1,-11.1%,–,–
Cc1cccc(NC(=O)/C(=C\c2ccco2)NC(=O)c2ccccc2)c1,3.87%,–,"0.731 µM [rising, full curve]"
COc1ccc(NC(=O)c2cc(Br)ccc2Cl)c([N+](=O)[O-])c1,51.3%,"8.2 µM [rising, partial curve, poor fit]",–
CN1CCN(C(=S)C(=O)Nc2ccccc2)CC1,118%,–,–
CC(=O)Nc1cccc(C(=O)OCC(=O)c2ccccc2Cl)c1,54.8%,"8.2 µM [rising, partial curve, poor fit]","29.1 µM [rising, single point]"
NC(=O)CSc1n[nH]c(-c2ccco2)n1,-17%,–,"0.00461 µM [falling, full curve, poor fit]"
COc1ccc2nnc(-c3ccccc3)n2n1,6.11%,–,–
CS(=O)(=O)N(CC(=O)N1CCN(c2ccccc2F)CC1)c1ccc2c(c1)OCCO2,-15.9%,–,–
CC(=O)Nc1cccc(OCC(=O)NS(=O)(=O)c2ccc(Cl)cc2)c1,-40.3%,"36.6 µM [falling, partial curve]","29.1 µM [falling, single point]"
O=C1c2cccc3c([N+](=O)[O-])ccc(c23)C(=O)N1c1nccs1,-7.81%,–,–
COc1cccc(CC(=O)Nc2ccc3c(c2)OC2(CCCC2)O3)c1,-19.4%,"0.82 µM [falling, full curve, poor fit]","0.259 µM [falling, full curve, poor fit]"
